Some of these results come from one statement about several compounds together.
test system: HIV; experiment: anti-HIV activity, in-vitro assay system; assay type: cell-based; settings: against AIDV / retroviruses; statement in words
Protocol: The anti-HIV activity of various compounds was tested using an in-vitro assay system as described in H Mitsuya et al; (Proc Natl. Acad.Sci. USA Vol 82 pp 7096-7100, October 1985)

SMILES | antiviral / anti-retroviral activity, in words
CCCCn1c(=O)n(Cc2ccccc2)c(=O)c2nc(-c3ccc(/C=C/C(=O)O)cc3)[nH]c21 [Compound 26, (E)-4-(1-benzyl-1,2,3,6-tetrahydro-2,6-dioxo-3-butyl-9H-purin-8-yl)cinnamic acid] | particularly preferred on account of their antiviral activity
CCCn1c(=O)n(Cc2ccccc2)c(=O)c2nc(-c3ccc(/C=C/C(=O)O)cc3)[nH]c21 [Example 25, (E)-4-(1-Benzyl-1,2,3,6-tetrahydro-2,6-dioxo-3-propyl-9H-purin-8-yl)cinnamic acid] | particularly preferred on account of their antiviral activity
CCCCn1c(=O)c2nc(-c3ccc(/C=C/C(=O)O)cc3)[nH]c2n(Cc2ccccc2)c1=O [Compound 27, (E)-4-(3-benzyl-1,2,3,6-tetrahydro-2,6-dioxo-1-butyl-9H-purin-8-yl)cinnamic acid] | particularly preferred on account of their antiviral activity
CCCCn1c(=O)c2nc(-c3ccc(/C=C/C(=O)O)cc3)[nH]c2n(CCCC)c1=O [Example 14, (E)-4-(1,3-dibutyl-1,2,3,6-tetrahydro-2,6-dioxo-9H-purin-8-yl)cinnamic acid] | particularly preferred on account of their antiviral activity
CCCn1c(=O)c2nc(-c3ccc(/C=C/C(=O)O)cc3)[nH]c2n(Cc2ccccc2)c1=O [Example 26, (E)-4-(3-Benzyl-1,2,3,6-tetrahydro-2,6dioxo-1-propyl-9H-purin-8-yl)cinnamicacid] | particularly preferred on account of their antiviral activity

same assay, conditions: against AIDV / retroviruses; statement in words; listed as Compound 14

SMILES | antiviral / anti-retroviral activity, in words
O=C(O)/C=C/c1ccc(-c2nc3c(=O)n(Cc4ccccc4)c(=O)n(Cc4ccccc4)c3[nH]2)cc1 [Example 15, (E)-4-(1,3-dibenzyl-1,2,3,6-tetrahydro-2,6-dioxo-9H-purin-8yl) cinnamic acid] | particularly preferred on account of their antiviral activity
